Some of the results follow.
Experiments:
Assay in all cases: log2 fold change, soluble protein after heating vs DMSO (PISA); higher = thermal stabilisation; K562 lysate, 10 uM; active = over 0.2 and 3.5 SD of the protein, either way, in both replicates (recomputed)
[1] = compound: Cc1sc2c(c1C)C(c1ccc(Cl)cc1)=N[C@@H](CC(=O)OC(C)(C)C)c1nnc(C)n1-2
Procedure, shortened: (§1)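 The values are log-two fold changes in thermal stability compared with solvent controls and come from duplicates. They were obtained by TMTpro 16plex LC-MS/MS, with channel sums equalised, on the supernatant after 21,000xg for 90 min. That supernatant came from crude K562 extract at 1 mg/mL protein treated with 10 μM compound for 30 min, heated for 3 min across 48°C-58°C, pooled and brought to 0.5% NP-40 at 4°C.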

Protein sequences, listed by entry. Tags and fused reporters are not part of them. Lines headed by an entry give the natural chain unless they say otherwise; changes in a name come on top.
A0A494C071, A0A494C071, UniProt A0A494C071, whole entry, looked up: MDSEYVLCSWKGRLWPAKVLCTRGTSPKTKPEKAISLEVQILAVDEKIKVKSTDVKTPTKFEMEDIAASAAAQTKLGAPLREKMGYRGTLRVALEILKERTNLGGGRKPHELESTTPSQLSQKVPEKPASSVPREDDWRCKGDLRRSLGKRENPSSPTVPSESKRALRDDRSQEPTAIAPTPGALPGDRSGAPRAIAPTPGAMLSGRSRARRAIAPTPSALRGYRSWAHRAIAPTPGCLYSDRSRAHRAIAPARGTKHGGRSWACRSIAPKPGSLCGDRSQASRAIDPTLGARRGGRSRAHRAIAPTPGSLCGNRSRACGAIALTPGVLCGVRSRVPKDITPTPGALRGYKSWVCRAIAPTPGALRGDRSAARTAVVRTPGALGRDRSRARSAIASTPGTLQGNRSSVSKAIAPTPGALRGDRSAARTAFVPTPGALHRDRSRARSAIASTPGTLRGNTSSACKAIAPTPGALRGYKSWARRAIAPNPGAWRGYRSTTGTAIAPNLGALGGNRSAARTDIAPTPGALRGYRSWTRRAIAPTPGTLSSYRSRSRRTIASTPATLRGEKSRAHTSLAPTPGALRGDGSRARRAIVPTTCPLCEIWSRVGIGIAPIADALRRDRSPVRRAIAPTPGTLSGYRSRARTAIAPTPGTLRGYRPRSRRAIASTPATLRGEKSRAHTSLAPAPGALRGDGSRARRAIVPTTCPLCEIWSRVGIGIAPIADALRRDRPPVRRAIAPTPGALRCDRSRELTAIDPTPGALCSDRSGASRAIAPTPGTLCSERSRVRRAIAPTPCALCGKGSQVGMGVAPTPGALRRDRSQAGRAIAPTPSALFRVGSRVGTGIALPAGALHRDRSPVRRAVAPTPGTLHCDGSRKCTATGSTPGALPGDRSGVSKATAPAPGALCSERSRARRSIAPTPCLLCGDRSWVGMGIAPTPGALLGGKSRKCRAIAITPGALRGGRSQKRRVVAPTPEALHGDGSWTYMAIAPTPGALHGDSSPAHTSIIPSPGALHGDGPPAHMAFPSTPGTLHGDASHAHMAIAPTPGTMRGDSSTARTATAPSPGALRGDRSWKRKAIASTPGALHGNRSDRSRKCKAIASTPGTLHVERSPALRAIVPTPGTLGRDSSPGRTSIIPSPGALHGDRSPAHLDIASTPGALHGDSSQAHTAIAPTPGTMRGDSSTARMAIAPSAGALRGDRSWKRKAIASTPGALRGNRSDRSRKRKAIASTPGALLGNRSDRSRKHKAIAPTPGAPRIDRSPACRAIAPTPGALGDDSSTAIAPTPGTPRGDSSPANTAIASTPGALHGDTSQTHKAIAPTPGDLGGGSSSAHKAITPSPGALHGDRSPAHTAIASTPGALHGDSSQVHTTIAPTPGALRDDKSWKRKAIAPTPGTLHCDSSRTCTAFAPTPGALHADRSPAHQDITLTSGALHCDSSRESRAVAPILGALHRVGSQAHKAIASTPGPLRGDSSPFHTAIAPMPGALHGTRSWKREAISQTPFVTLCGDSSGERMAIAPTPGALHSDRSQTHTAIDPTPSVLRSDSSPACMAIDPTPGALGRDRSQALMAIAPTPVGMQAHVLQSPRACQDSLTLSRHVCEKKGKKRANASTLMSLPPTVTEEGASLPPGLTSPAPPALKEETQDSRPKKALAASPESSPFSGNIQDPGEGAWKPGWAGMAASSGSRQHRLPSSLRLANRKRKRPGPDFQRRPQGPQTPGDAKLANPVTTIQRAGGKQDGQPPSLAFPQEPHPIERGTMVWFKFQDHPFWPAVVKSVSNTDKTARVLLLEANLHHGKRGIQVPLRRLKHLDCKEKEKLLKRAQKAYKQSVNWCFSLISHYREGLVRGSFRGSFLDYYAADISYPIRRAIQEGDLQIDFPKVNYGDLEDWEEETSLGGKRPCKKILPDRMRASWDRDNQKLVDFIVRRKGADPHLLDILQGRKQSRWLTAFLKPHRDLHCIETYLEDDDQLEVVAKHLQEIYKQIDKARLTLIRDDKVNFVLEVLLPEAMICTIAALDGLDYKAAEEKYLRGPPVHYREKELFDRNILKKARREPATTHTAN
UniProt Q8IZY2: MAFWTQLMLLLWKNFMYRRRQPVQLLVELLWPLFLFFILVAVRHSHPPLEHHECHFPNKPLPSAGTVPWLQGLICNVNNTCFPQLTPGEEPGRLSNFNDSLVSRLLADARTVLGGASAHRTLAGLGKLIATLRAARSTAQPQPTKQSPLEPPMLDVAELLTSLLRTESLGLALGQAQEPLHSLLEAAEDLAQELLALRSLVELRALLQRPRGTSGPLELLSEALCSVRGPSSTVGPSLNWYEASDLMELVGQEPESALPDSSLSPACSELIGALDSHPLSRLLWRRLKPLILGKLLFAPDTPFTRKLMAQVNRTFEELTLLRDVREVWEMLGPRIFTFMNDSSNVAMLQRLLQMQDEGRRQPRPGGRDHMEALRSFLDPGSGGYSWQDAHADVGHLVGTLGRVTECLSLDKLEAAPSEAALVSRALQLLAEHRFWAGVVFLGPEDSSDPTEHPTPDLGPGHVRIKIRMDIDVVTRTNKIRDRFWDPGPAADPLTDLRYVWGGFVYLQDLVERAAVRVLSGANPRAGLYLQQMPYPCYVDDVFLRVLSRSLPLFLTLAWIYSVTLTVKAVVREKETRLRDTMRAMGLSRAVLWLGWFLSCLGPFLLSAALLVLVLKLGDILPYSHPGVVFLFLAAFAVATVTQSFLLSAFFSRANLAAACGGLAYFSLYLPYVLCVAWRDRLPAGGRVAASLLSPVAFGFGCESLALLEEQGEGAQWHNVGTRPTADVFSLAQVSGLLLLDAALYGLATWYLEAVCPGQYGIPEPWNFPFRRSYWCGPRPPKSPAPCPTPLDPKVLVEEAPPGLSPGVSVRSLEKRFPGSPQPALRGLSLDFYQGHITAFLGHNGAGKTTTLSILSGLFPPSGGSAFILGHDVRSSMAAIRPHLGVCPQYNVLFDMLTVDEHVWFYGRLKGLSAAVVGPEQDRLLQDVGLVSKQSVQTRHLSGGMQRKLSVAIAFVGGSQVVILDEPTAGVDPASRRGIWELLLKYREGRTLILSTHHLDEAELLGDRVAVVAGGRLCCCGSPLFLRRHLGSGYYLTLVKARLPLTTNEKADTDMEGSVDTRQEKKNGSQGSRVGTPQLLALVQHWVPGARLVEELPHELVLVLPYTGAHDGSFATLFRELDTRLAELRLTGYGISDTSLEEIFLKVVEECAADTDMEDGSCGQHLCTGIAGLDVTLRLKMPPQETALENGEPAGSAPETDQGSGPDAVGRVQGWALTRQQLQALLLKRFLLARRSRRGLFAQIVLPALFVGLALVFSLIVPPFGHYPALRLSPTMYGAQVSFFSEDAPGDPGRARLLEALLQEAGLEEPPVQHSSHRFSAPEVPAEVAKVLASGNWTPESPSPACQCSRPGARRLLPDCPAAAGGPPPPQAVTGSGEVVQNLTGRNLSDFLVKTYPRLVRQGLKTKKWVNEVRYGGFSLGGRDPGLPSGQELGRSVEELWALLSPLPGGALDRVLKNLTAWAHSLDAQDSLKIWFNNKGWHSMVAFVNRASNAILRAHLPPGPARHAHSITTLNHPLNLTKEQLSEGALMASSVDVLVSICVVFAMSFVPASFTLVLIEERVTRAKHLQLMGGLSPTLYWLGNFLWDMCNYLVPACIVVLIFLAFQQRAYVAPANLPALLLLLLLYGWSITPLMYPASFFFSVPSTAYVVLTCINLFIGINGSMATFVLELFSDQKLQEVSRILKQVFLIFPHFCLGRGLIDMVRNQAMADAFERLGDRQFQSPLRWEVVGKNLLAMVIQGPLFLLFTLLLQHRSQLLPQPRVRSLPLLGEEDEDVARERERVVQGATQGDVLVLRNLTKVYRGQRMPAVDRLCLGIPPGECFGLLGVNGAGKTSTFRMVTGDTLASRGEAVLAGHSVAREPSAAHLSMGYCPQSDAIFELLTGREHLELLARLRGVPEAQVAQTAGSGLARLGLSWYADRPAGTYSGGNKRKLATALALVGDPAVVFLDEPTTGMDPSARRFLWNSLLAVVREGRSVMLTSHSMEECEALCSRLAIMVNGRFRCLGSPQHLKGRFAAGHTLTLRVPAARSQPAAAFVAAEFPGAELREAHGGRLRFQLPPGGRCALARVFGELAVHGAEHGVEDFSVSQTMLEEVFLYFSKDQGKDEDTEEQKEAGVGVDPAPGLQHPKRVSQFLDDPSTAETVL
UniProt Q6JQN1: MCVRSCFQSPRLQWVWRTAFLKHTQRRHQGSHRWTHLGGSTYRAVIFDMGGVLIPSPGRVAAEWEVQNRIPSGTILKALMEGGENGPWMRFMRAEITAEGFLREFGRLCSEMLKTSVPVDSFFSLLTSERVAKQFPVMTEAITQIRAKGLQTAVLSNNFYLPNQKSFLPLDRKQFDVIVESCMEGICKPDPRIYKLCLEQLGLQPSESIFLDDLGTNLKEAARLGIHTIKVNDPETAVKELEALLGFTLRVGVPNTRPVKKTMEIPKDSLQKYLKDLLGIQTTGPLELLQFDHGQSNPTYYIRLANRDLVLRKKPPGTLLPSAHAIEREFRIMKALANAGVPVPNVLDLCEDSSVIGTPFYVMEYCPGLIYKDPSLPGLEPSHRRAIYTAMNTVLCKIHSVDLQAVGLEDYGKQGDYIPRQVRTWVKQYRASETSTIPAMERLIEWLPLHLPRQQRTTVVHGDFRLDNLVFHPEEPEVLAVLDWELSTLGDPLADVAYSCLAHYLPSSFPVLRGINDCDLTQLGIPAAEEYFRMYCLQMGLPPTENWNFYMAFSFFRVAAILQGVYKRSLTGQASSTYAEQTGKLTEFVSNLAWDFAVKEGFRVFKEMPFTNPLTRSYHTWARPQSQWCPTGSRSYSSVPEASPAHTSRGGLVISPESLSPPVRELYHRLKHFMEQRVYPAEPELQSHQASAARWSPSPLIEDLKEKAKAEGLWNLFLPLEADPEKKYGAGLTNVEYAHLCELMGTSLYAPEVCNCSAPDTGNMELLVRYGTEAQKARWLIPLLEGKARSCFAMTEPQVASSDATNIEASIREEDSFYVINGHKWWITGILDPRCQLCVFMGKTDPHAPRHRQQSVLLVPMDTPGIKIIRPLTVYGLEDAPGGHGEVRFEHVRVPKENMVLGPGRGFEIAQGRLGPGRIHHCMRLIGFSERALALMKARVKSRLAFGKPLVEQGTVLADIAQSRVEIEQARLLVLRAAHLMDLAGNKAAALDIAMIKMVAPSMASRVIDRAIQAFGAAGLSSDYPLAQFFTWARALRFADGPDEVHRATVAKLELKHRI
UniProt Q9BWD1: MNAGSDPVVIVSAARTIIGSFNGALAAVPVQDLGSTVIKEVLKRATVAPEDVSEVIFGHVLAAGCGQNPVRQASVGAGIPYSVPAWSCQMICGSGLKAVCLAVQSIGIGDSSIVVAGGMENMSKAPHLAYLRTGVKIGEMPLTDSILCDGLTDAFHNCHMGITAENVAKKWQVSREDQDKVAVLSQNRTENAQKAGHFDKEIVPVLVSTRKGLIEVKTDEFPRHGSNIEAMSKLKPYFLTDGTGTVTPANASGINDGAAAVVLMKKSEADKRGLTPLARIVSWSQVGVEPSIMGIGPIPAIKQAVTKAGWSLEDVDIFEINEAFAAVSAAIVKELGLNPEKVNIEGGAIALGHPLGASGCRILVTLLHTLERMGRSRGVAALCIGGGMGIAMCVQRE
UniProt O95870: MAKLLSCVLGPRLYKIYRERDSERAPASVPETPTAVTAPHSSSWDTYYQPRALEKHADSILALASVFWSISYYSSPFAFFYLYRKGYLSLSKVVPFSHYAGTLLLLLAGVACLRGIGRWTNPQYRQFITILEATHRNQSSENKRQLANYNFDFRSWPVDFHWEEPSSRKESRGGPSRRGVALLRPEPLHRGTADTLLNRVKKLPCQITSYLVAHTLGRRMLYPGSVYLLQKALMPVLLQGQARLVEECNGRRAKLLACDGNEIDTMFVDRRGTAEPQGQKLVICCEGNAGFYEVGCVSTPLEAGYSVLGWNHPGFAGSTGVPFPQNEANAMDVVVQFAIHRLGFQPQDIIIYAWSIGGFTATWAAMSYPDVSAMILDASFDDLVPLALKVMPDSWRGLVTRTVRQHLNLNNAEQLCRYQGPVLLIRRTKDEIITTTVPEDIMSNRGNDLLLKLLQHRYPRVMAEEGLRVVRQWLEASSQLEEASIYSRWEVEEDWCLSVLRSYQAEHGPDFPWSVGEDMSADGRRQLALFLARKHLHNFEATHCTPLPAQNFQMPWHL
UniProt Q9P1F3: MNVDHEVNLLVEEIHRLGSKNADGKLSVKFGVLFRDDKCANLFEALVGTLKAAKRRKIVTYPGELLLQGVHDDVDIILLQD
UniProt Q9ULW3: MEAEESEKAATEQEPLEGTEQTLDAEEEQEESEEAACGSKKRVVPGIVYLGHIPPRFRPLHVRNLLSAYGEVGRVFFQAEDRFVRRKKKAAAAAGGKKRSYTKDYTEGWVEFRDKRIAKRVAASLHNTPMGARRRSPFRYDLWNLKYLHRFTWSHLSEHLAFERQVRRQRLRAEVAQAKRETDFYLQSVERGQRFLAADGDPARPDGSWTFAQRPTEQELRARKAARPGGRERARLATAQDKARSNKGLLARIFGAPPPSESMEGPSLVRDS

[2] = compound: C1=CC=C(C=C1)[C@H](COC2=CC3=C(C=C2)NC(=O)N3)NC(=O)C4=CC=CN(C4=O)CC5=CC(=C(C=C5)F)F
Procedure, shortened: as §1

[3] = compound: CC1=C(SC2=C1C(=N[C@H](C3=NN=C(N32)C)CC(=O)N)C4=CC=C(C=C4)Cl)C
Procedure, shortened: as §1

[4] = compound: c1ccc([C@@H]2C[C@H]2NC2CCNCC2)cc1
Procedure, shortened: as §1

[5] = compound: CC1=C2C(=CC=C1)N=C(N(C2=O)C3=CC=CC=C3C)CN4C=NC5=C(N=CN=C54)N
Procedure, shortened: as §1

Measured: log2 fold change

ABCC3 isoform 4 (UniProt O15438)
inactive: [1] 0.057

A0A494C071, A0A494C071
inactive: [2] -0.13 | [3] -0.037 | [1] -0.094 | [4] -0.14

AARS1 (UniProt H3BPK7)
inactive: [5] -0.028

ABCA7 (UniProt Q8IZY2)
inactive: [1] 0.004

3 records picked at random from those above, as already listed:
A0A494C071, A0A494C071
inactive: [2] -0.13 | [3] -0.037 | [1] -0.094 | [4] -0.14

ABCC3 isoform 4 (UniProt O15438)
inactive: [1] 0.057

AARS1 (UniProt H3BPK7)
inactive: [5] -0.028

Additional entries

ABITRAM (UniProt Q9NX38)
inactive: [2] 0.02 | [3] 0.01 | [5] 0.022 | [1] 0.078 | [4] -0.083

A2ML1 (UniProt A8K2U0)
inactive: [2] -0.237 | [3] 0.105 | [4] -0.079

AATF (UniProt Q9NY61)
inactive: [2] 0.05 | [3] -0.002 | [5] 0.203 | [1] 0.014 | [4] 0.143

ACAD10 isoform 5 (UniProt Q6JQN1)
inactive: [1] -0.019 | [4] 0.017

ABCC10 (UniProt Q5T3U5)
inactive: [1] 0.068 | [4] 0.042

ABCA8 isoform 3 (UniProt O94911)
inactive: [4] 0.024

ABHD15 (UniProt Q6UXT9)
inactive: [5] 0.018 | [4] 0

A0A0B4J2A0, A0A0B4J2A0
inactive: [2] 0 | [3] -0.039 | [5] 0.024 | [1] -0.022 | [4] 0.049

ACAT2 (UniProt Q9BWD1)
inactive: [2] 0.024 | [3] -0.03 | [5] -0.021 | [1] -0.029 | [4] -0.041

AACS (UniProt Q86V21)
inactive: [2] -0.112 | [3] 0.042 | [5] 0.013 | [1] -0.002 | [4] 0.079

ABHD16A (UniProt O95870)
inactive: [2] -0.011 | [3] 0.008 | [5] 0.07 | [1] 0.059 | [4] 0.028

ABHD17A isoform 2 (UniProt Q96GS6)
inactive: [2] -0.053 | [3] -0.02 | [5] 0.011 | [1] -0.025 | [4] -0.069

ABRACL (UniProt Q9P1F3)
inactive: [2] 0.052 | [3] -0.221 | [1] 0.054 | [4] 0.075

AARSD1 (UniProt Q9BTE6)
inactive: [2] -0.004 | [3] 0.069 | [1] -0.074 | [4] -0.399

ABCE1 (UniProt H0Y990)
inactive: [2] 0.01 | [3] 0.145 | [5] -0.007 | [4] -0.025

ABT1 (UniProt Q9ULW3)
inactive: [2] 0.103 | [3] 0.03 | [5] 0.081 | [1] -0.053 | [4] 0.022

ABHD11 (UniProt Q8NFV4)
inactive: [2] 0.072 | [3] -0.031 | [5] 0.028 | [1] -0.021 | [4] -0.098

ACADS (UniProt P16219)
inactive: [2] -0.015 | [3] 0.069 | [5] 0.054 | [1] 0.013 | [4] 0.003

ACAP1 (UniProt Q15027)
inactive: [4] 0.052

ABLIM1 (UniProt O14639)
inactive: [2] 0.03 | [3] 0.047 | [5] 0.084 | [1] -0.049 | [4] -0.052

ACAT1, A0A5F9ZHJ0
inactive: [4] -0.06

ACBD7 (UniProt Q8N6N7)
inactive: [1] -0.12

ACAP3 (UniProt Q96P50)
inactive: [2] 0.157 | [3] 0.129 | [1] -0.054

ACLY isoform 2 (UniProt P53396)
inactive: [2] 0.099 | [3] -0.01 | [5] 0.023 | [4] -0.325

ACD (UniProt Q96AP0)
inactive: [4] -0.042

ACADSB (UniProt P45954)
inactive: [2] 0.035 | [3] -0.051 | [5] -0.053 | [1] 0.09 | [4] 0.016

ABCG2 (UniProt Q9UNQ0)
inactive: [4] -0.115

ACBD5 (UniProt Q5T8D3)
inactive: [1] -0.108 | [4] 0.07

ABHD4 (UniProt Q8TB40)
inactive: [5] -0.127

ACACB (UniProt O00763)
inactive: [2] -0.018 | [3] 0.002 | [5] 0.01 | [1] 0.074 | [4] 0.014
